This data set in a line: Fragrance Fidelity Index (FFI), expert grader ranking of odor strength of treated fabric swatch against ethyl vanillin reference swatches. The note with it: 13 μL on clean swatch, scale 0 to 3.

Drawing on patent US11334695B2, “Antiperspirant and deodorant compositions comprising malodor reduction compositions” (The Procter & Gamble Company, priority 2014, dated 2022), this text covers FFI for 15 compounds.

For the compound `O=C1CCC2CCCCC2O1` (stereo not drawn) [3,4,4a,5,6,7,8,8a-octahydrochromen-2-one], the FFI reads like this: (test material Conc 10 ppm) 0; (test material Conc 50 ppm) 0.
For `CC(C)(C)C1CCCCC1` [4-tert-butyl cyclohexane], the FFI came out at 0 (test material Conc 10 ppm) and 0.3 (test material Conc 50 ppm).
`CCCCCCCCCCCCO` [Material 174] registered an FFI (test material Conc 50 ppm) of 0.5.
On to `CC(=O)OCCCCCCC(C)C` [Material 204], for which the FFI is reported as 0 (test material Conc 10 ppm) and 0 (test material Conc 50 ppm).
With `CC1(C)CCc2ccc(CCC=O)cc21` [Material 261], the FFI by setting is: (test material Conc 10 ppm) 0; (test material Conc 50 ppm) 1.3.
As for `CC(=O)OC1CC2CC1C1CC=CC21` (stereo not drawn) [Material 281], the FFI by setting is: (test material Conc 10 ppm) 0; (test material Conc 50 ppm) 0.5.
Compound `CCCCCCCCCCCC(=O)OCC` [Material 391] showed an FFI (test material Conc 50 ppm) of 0.3.
`C=CC(C)=CCC=C(C)C` [Material 524]: where the note is “test material Conc 50 ppm”, the FFI worked out at 0.
As for `CCC(O)COC1CCCCC1C(C)(C)C` (stereo not drawn) [Material 677], the FFI is listed as 0 (test material Conc 10 ppm) and 1.8 (test material Conc 50 ppm).
On to `CC(CCO)CCc1ccccc1` (stereo not drawn) [Material 962], for which the FFI reads like this: (test material Conc 10 ppm) 0; (test material Conc 50 ppm) 0.5.
For `CCOC(=O)OC1C(C)CCC(C)C1C` (stereo not drawn) [Material 1005], the FFI (test material Conc 50 ppm) was found to be 0.5.
Turning to `COC(=O)OC1CC/C=C\CCC1` (stereo not drawn) [Material 1139], the FFI reads like this: (test material Conc 10 ppm) 0; (test material Conc 50 ppm) 1.0.
With `C=C1CCC2OC2(C)CCC2C1CC2(C)C` (stereo not drawn) [Material 1148], where the note is “test material Conc 50 ppm”, the FFI is 0.5.
In the case of `CC1(C)C2CCC3(C2)C1C(=O)CCC3(C)C` (stereo not drawn) [Material 1149], the FFI is, setting by setting: (test material Conc 10 ppm) 0; (test material Conc 50 ppm) 0.8.
For `CCCCCCCCCCCO` [Undecanol], the FFI (test material Conc 50 ppm) is recorded as 0.8.
